# At least one structure is not confirmed: it was looked up by name or label, or the drawing left a doubt.
# Experiments:
# Format in all cases: cell-based, C57BL/6 mice
# TLR2 = experiment: TNF-α production by splenocytes in response to TLR2 ligand PGN; conditions: PGN 1, 10, 100 ng/ml; compared to control
# Method: (§1) OPLT was dissolved in sterile PBS at 100 μM, and pH was adjusted to approximately 7.5. Splenocytes from naïve C57BL/6 mice were stained with CFSE, prepared, cultured, and dosed. Cells were seeded at 2×10^5 cells/well.
# (§2) To evaluate the effects of OPLT on cytokine production by splenocytes in response to different TLR ligands, splenocytes were incubated with one of the following TLR ligands in triplicate: PGN, LPS, ODN CPG, dsRNA, or ssRNA, as per group assignment. Cells were then treated as follows: • Control: No treatment; • OPLT: Cells were dosed with 1.85 μg/ml; • Dexamethasone: Cells were dosed with 100 μg/ml; • Rapamycin: Cells were dosed with 625 μg/ml. Cells were incubated for 48 hours before collecting the supernatant for TNF-α analysis.
# (§3) The supernatant was collected for TNF-α analysis by ELISA.
# TLR7 = experiment: TNF-α production by splenocytes in response to TLR7 ligand ssPolyU; conditions: high dose of Poly U; statistically significant
# Method: as §1, §2, §3
# TLR4 = experiment: TNF-α production by splenocytes in response to TLR4 ligand LPS; conditions: compared to control at all doses; 10 μM OPLT
# Method: as §1, §2, §3
# TLR3 = experiment: TNF-α production by splenocytes in response to TLR3 ligand poly(I:C); conditions: compared to control at all doses
# Method: as §1, §2, §3
# TLR9 = experiment: TNF-α production by splenocytes in response to TLR9 ligand ODN CpG
# Method: as §1, §2, §3
# [1] = mid-dose of ODN CpG, statistically significant
Structure (SMILES),effect on splenocytes' TNF-α response to the TLR2 ligand PGN (in words) (TLR2),effect on splenocytes' TNF-α response to the TLR7 ligand Poly U (in words) (TLR7),effect on splenocytes' TNF-α response to the TLR4 ligand LPS (in words) (TLR4),effect on splenocytes' TNF-α response to the TLR3 ligand poly(I:C) (in words) (TLR3),effect on splenocytes' TNF-α response to the TLR9 ligand ODN CpG (in words) (TLR9; high dose of ODN CpG),effect on splenocytes' TNF-α response to the TLR9 ligand ODN CpG (in words) (TLR9; [1])
"C[C@@H]1C[C@H]2[C@@H]3CCC4=CC(=O)C=C[C@]4(C)[C@@]3(F)[C@@H](O)C[C@]2(C)[C@@]1(O)C(=O)CO [Dexamethasone, dexamethasone]",abrogated splenocytes' response to the TLR2 ligand PGN,reduced splenocytes' response to a high dose of the TLR7 ligand Poly U,abrogated splenocytes' response to the TLR4 ligand LPS,abrogated splenocytes' response to the TLR3 ligand poly(I:C),suppressed splenocytes' response,reduced splenocytes' response to mid-dose of the TLR9 ligand ODN CpG
"CO[C@H]1C[C@@H]2CC[C@@H](C)[C@@](O)(O2)C(=O)C(=O)N2CCCC[C@H]2C(=O)O[C@H]([C@H](C)C[C@@H]2CC[C@@H](O)[C@H](OC)C2)CC(=O)[C@H](C)/C=C(\C)[C@@H](O)[C@@H](OC)C(=O)[C@H](C)C[C@H](C)/C=C/C=C/C=C/1C [Rapamycin, rapamycin]",,reduced splenocytes' response to a high dose of the TLR7 ligand Poly U,abrogated splenocytes' response to the TLR4 ligand LPS,abrogated splenocytes' response to the TLR3 ligand poly(I:C),suppressed splenocytes' response,reduced splenocytes' response to mid-dose of the TLR9 ligand ODN CpG

# Reference: patent US20240173389A1, “Compositions and Methods For Reducing Immune Intolerance” (LAPIX THERAPEUTICS, INC., priority 2021, published 2024)
